This is one part of the list. The data scatter; read single values as rough.
Experiments:
[1] = compound: ClCC(=O)N[C@@H]1CCCc2ccccc12; experiment: log2 mean competition ratio of IA-DTB cysteine labelling (DMSO/compound) (log2 ratio); higher = stronger cysteine engagement by compound; conditions: treatment time: 4 h, cell line lysate: HEK293T
Procedure: (§1)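 IA-DTB competitive cysteine chemoproteomics in HEK293T RIPA lysate. Lysates were treated with compound 29 or 30 at 50 or 200 µM for 4 h, then IA-DTB (500 µM, 1 h), trypsin-digested, NeutrAvidin-enriched and analysed by diaPASEF. Competition ratio = intensity DMSO / intensity compound (n=4 treated, n=64 DMSO); binding: mean log2 CR ≥ 1 and p ≤ 0.05 plus QC filters. Target is the cysteine site.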

Chains of the proteins cited; added tags and fusions are not shown. Lines headed by an entry give the natural chain unless they say otherwise; changes in a name come on top. Residues count along the entry.
UniProt Q86YR5, 515-536: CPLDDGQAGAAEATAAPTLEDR
UniProt Q08378: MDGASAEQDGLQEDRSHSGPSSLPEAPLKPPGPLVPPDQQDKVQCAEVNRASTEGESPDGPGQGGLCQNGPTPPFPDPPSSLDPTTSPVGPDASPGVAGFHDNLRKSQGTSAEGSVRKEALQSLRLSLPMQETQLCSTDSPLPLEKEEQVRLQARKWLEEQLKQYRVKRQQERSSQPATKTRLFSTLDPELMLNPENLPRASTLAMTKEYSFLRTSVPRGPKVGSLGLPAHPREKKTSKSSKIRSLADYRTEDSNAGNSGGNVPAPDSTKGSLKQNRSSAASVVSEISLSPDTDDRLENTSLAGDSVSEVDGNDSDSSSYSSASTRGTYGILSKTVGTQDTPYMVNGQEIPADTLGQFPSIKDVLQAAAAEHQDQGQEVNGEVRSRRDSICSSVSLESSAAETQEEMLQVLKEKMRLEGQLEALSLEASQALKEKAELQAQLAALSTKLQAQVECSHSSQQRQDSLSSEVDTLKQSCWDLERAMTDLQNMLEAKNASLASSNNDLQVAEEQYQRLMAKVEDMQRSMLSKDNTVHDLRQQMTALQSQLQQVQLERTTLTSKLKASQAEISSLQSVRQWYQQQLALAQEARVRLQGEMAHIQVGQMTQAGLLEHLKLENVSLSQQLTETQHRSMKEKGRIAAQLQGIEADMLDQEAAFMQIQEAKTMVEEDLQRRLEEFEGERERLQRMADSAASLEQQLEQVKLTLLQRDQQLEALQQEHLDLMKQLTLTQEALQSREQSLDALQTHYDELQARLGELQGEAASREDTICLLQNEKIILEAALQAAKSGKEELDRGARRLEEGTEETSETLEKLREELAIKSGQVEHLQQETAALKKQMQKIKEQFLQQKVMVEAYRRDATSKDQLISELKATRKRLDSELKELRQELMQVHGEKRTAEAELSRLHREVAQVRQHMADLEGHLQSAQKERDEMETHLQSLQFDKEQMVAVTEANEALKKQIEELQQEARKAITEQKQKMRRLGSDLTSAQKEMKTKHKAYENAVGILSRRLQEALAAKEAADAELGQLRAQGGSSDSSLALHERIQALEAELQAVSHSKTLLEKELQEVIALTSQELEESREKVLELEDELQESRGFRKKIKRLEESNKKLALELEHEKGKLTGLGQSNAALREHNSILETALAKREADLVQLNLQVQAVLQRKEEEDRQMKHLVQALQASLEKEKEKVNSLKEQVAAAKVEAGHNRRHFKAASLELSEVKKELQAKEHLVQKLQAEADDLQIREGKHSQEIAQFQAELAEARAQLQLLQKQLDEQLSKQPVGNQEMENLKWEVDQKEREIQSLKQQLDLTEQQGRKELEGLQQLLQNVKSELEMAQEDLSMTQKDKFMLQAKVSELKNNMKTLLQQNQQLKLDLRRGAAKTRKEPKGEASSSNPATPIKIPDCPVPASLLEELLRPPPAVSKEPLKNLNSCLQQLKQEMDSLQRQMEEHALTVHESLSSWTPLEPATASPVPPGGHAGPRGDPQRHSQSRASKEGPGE
UniProt P49915: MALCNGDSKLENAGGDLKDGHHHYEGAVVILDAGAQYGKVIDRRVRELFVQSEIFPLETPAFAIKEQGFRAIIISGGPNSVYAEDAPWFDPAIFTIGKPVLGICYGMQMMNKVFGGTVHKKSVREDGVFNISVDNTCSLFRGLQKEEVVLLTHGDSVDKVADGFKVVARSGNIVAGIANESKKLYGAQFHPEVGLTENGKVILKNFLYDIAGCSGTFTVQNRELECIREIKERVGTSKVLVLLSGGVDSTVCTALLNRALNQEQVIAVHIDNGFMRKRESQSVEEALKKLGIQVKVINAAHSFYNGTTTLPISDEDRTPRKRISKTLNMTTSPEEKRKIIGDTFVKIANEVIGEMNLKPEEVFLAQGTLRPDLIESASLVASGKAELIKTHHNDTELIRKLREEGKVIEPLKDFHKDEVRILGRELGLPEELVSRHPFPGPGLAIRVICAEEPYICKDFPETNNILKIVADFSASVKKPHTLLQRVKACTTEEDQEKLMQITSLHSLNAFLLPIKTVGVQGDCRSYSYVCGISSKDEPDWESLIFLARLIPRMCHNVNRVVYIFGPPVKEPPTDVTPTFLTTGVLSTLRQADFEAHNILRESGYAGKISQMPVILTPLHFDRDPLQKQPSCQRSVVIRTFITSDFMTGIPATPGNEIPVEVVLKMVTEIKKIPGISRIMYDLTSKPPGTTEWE
UniProt Q92538, whole entry, looked up: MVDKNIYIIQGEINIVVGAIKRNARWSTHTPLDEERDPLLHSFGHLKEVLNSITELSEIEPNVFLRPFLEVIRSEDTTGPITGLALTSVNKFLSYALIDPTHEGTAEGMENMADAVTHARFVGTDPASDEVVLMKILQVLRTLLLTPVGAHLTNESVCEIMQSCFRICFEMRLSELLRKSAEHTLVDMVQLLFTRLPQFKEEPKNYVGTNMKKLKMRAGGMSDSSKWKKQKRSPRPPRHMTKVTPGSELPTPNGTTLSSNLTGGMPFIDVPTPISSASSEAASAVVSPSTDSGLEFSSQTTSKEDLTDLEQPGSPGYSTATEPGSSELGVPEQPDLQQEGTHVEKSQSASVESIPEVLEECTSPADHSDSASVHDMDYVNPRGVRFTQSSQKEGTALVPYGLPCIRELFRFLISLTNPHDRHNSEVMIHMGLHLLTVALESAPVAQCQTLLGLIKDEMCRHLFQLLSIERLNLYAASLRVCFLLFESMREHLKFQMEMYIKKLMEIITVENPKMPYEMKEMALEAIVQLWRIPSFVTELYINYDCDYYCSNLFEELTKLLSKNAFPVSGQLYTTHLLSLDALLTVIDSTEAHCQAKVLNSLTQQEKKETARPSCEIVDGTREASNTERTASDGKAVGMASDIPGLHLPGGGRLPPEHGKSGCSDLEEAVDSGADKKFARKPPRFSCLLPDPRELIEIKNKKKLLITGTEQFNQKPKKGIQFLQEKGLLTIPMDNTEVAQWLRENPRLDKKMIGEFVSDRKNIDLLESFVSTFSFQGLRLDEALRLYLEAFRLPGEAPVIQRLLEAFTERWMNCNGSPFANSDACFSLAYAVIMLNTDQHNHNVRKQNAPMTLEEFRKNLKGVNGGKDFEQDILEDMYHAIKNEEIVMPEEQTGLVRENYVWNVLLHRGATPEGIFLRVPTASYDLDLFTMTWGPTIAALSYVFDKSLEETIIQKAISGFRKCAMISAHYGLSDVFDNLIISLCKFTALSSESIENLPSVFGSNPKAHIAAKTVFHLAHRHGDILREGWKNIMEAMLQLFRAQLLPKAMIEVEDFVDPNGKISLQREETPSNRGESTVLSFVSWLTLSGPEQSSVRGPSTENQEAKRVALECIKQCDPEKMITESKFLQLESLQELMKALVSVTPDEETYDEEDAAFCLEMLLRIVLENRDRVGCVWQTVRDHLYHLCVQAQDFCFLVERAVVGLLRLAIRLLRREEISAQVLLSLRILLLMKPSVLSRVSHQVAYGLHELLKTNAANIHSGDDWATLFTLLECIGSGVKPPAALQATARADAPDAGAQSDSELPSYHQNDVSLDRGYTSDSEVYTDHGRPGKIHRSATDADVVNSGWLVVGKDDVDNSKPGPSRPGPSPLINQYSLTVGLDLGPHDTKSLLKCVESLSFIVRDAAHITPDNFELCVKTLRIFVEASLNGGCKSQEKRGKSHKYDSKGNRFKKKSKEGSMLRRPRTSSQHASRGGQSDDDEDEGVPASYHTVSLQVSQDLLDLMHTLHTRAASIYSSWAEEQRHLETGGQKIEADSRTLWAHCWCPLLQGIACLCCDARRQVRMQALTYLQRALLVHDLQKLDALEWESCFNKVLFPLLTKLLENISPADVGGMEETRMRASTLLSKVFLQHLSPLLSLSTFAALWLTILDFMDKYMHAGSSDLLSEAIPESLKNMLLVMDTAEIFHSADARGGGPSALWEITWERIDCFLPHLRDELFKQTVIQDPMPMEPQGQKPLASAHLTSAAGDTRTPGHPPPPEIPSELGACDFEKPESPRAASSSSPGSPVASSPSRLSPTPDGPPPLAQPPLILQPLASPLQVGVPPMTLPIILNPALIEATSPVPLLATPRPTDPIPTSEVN
UniProt Q8TD30: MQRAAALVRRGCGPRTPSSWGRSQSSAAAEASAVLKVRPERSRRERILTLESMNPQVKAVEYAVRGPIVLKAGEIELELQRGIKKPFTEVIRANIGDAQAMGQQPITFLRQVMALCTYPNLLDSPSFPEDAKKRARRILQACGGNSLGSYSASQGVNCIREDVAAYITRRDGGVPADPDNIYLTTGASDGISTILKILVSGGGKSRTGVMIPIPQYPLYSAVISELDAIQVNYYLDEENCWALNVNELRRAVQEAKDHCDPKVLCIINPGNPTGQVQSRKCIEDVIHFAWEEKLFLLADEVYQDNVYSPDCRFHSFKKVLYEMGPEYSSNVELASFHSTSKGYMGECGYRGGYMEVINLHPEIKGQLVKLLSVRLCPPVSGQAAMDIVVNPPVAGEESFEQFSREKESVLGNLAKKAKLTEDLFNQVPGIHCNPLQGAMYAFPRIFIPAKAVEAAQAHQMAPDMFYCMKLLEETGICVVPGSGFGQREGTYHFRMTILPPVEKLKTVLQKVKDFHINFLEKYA
UniProt Q92896: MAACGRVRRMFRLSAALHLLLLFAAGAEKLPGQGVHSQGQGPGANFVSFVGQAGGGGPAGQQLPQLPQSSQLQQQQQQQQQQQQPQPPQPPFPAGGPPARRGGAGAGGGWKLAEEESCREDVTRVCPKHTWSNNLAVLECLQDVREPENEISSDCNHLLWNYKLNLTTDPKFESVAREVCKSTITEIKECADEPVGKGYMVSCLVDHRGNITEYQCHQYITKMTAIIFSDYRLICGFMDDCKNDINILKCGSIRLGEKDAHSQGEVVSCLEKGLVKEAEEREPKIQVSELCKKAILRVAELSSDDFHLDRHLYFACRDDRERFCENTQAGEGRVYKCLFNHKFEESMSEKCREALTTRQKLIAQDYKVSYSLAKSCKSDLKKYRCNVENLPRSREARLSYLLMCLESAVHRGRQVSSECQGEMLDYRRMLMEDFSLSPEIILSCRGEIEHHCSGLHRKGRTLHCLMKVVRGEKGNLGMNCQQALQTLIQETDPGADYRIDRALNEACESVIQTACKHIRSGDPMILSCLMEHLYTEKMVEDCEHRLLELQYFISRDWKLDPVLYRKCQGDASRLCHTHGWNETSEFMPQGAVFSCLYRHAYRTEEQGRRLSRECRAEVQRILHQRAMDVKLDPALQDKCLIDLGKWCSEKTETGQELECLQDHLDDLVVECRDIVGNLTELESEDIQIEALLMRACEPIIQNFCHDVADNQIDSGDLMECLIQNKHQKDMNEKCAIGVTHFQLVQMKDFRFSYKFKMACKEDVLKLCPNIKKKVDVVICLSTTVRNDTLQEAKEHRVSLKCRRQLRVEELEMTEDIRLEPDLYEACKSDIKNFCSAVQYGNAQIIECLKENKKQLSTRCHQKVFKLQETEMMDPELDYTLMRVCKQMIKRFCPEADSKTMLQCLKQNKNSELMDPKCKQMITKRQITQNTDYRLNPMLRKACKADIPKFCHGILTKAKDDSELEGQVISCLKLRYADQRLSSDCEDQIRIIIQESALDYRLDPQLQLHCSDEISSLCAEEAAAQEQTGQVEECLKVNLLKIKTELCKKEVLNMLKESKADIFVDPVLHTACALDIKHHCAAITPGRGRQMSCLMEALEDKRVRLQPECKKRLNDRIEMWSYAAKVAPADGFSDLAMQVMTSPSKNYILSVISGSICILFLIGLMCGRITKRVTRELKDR
UniProt Q14789, 1143-1165: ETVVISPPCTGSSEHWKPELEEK
UniProt Q9HAV0: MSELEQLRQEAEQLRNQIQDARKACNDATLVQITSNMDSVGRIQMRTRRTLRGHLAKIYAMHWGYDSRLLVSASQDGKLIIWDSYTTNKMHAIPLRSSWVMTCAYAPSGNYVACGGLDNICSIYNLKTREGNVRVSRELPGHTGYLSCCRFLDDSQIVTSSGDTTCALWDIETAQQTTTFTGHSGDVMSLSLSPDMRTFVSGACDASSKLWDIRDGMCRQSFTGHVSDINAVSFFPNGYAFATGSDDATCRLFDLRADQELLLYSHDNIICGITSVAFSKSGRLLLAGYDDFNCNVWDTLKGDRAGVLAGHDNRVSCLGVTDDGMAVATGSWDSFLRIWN
UniProt Q9UKJ3, 383-403: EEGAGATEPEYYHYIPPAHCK
UniProt P49840, 372-391: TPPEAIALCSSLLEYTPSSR
UniProt Q9BVM4: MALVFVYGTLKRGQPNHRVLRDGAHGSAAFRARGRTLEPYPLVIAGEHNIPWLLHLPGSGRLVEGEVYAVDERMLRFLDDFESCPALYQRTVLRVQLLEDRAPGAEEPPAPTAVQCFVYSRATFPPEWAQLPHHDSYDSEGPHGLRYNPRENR
UniProt Q17RS7, 612-638: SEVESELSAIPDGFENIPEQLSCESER
UniProt Q9NWU2, whole entry, looked up: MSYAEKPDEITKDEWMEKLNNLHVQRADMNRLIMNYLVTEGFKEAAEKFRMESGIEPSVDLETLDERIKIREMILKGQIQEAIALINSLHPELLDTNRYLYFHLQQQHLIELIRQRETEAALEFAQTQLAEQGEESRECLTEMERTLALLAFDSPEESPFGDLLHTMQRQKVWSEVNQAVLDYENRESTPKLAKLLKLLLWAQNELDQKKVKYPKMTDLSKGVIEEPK

[2] = compound: ClCC(=O)N[C@H]1CCCc2ccccc12; experiment: as above; conditions: treatment time: 4 h, cell line lysate: HEK293T
Procedure: as §1

Target	log2 mean competition ratio ([1]; 50 µM)	log2 mean competition ratio ([1]; 200 µM)	log2 mean competition ratio ([2]; 50 µM)	log2 mean competition ratio ([2]; 200 µM)
GRPEL2 C87 (UniProt Q8TAA5)	0.0471	0.0162	–	–
GLRX3 C229 (UniProt O76003)	-0.661	0.0715	–	–
GPD1L C202 (UniProt Q8N335)	-0.0937	0.181	–	–
GPSM1 C515 (UniProt Q86YR5)	-0.233	-0.247	–	–
GDE1 C53 (UniProt Q9NZC3)	–	-0.213	–	–
GOLGA3 C455 (UniProt Q08378)	0.0629	-0.162	–	–
GGPS1 C205 (UniProt O95749)	-0.0667	-0.228	–	–
GMPS C137 (UniProt P49915)	-0.307	-0.387	–	–
GGCX C99 (UniProt P38435)	-0.0693	-0.0628	–	–
GBF1 C1110 (UniProt Q92538)	-0.152	0.225	–	–
GPT2 C265 (UniProt Q8TD30)	0.0385	0.215	–	–
GLG1 C984 (UniProt Q92896)	-0.117	0.391	–	–
GCLC C501 (UniProt P48506)	-0.034	0.0666	–	–
GLG1 C419 (UniProt Q92896)	-0.273	0.298	–	–
GDI2 C282	0.151	0.26	–	–
GOLGA2 C356 (UniProt Q08379)	-0.059	-0.183	–	–
GFPT1 C254 (UniProt Q06210)	0.234	0.272	–	–
GCC2 C297 (UniProt Q8IWJ2)	-0.112	0.552	–	–
GON4L C2092 (UniProt Q3T8J9)	0.169	-0.266	–	–
GMDS C336 (UniProt O60547)	0.224	0.133	–	–
GOLGB1 C1713 (UniProt Q14789)	–	-0.256	–	–
GMPS C523 (UniProt P49915)	-0.198	0.151	–	–
GLMN C36 (UniProt Q92990)	-0.108	0.248	–	–

Target	log2 mean competition ratio ([1]; 50 µM)	log2 mean competition ratio ([1]; 200 µM)	log2 mean competition ratio ([2]; 50 µM)	log2 mean competition ratio ([2]; 200 µM)
GOLGA3 C45 (UniProt Q08378)	0.196	0.0939	–	–
GLDC C250 (UniProt P23378)	0.184	0.19	–	–
GNB4 C25 (UniProt Q9HAV0)	-0.0814	0.12	–	–
GRAMD1A C576 (UniProt Q96CP6)	-0.0921	0.037	–	–
GSK3B C317 (UniProt P49841)	0.105	0.141	–	–
GOLGB1 C1151 (UniProt Q14789)	-0.228	-0.216	–	–
GLI3 C870	-0.0691	0.306	–	–
GPD2 C270 (UniProt P43304)	-0.245	0.0828	–	–
GIT1 C674 (UniProt Q9Y2X7)	-0.0926	0.145	–	–
GPATCH8 C402 (UniProt Q9UKJ3)	0.00389	0.183	–	–
GPC3 C65	0.374	-0.29	–	–
GOLGA3 C769 (UniProt Q08378)	-0.127	-0.397	–	–
GRN C178 (UniProt P28799)	0.174	0.122	–	–
GNPNAT1 C179 (UniProt Q96EK6)	-0.00366	-0.2	–	–
GPD2 C45 (UniProt P43304)	0.0728	-0.385	–	–
GNA13 C329 (UniProt Q14344)	0.243	0.00746	–	–
GPHN C284 (UniProt Q9NQX3)	0.0959	0.039	0.332	0.173
GSK3B C76 (UniProt P49841)	0.238	0.157	-0.371	0.0752
GCN1 C1482 (UniProt Q92616)	-0.148	0.176	-0.138	0.284
GCN1 C329 (UniProt Q92616)	-0.113	0.00993	–	–
GSK3A C281 (UniProt P49840)	0.0226	-0.137	0.248	-0.101
GGNBP2 C544 (UniProt Q9H3C7)	0.251	0.0382	–	–
GBF1 C1588 (UniProt Q92538)	0.0841	-0.292	–	–

Target	log2 mean competition ratio ([1]; 50 µM)	log2 mean competition ratio ([1]; 200 µM)	log2 mean competition ratio ([2]; 50 µM)	log2 mean competition ratio ([2]; 200 µM)
GGA2 C343 (UniProt Q9UJY4)	0.184	0.277	0.399	0.397
GORAB C131 (UniProt Q5T7V8)	-0.346	-0.0953	–	–
GCN1 C2015 (UniProt Q92616)	0.252	0.00749	0.0864	-0.0489
GPRIN3 C172	0.686	0.4	–	–
GRB2 C32 (UniProt P62993)	0.013	0.0448	–	–
GLCCI1 C207 (UniProt Q86VQ1)	0.25	0.275	–	–
GPR180 C91 (UniProt Q86V85)	-0.0345	-0.0425	–	–
GEMIN2 C63 (UniProt O14893)	-0.33	-0.0902	–	–
GMPS C456 (UniProt P49915)	-0.527	0.11	–	–
GOLGA4 C1849 (UniProt Q13439)	-0.234	0.0421	–	–
GSS C409 (UniProt P48637)	-0.11	0.364	–	–
GIT1 C122 (UniProt Q9Y2X7)	0.166	0.486	-0.198	–
GOLIM4 C6	-0.144	0.101	0.189	0.143
GOLGB1 C2664 (UniProt Q14789)	-0.224	-0.238	-0.495	-0.218
GFPT2 C247 (UniProt O94808)	0.235	0.112	–	–
GFM2 C248 (UniProt Q969S9)	0.122	0.174	–	–
GEMIN4 C382 (UniProt P57678)	-0.414	0.0616	–	–
GLTP C176 (UniProt Q9NZD2)	0.0651	-0.546	-0.377	-0.287
GNL3L C518 (UniProt Q9NVN8)	-0.0185	0.155	–	–
GNB1 C204 (UniProt P62873)	0.0339	0.0613	–	–
GPRIN1 C778 (UniProt Q7Z2K8)	-0.0947	-0.0459	–	–
GPATCH2L C274 (UniProt Q9NWQ4)	0.0301	0.158	0.139	0.212
GPSM1 C616 (UniProt Q86YR5)	0.0375	0.0559	–	–

Target	log2 mean competition ratio ([1]; 50 µM)	log2 mean competition ratio ([1]; 200 µM)	log2 mean competition ratio ([2]; 50 µM)	log2 mean competition ratio ([2]; 200 µM)
GCC2 C1306 (UniProt Q8IWJ2)	-0.0276	0.108	-0.289	–
GNL3 C234 (UniProt Q9BVP2)	-0.134	0.016	0.926	0.308
GPS1 C175	-0.0837	0.524	–	–
GLUD1 C172 (UniProt P00367)	-0.0808	0.228	–	–
GDAP2 C348 (UniProt Q9NXN4)	-0.0404	0.0733	–	–
GMEB2 C96 (UniProt Q9UKD1)	0.0817	0.415	0.258	-0.231
GBF1 C403 (UniProt Q92538)	0.2	0.195	0.0364	0.627
GRK6 C138 (UniProt P43250)	0.052	0.0651	0.11	0.069
GCN1 C648 (UniProt Q92616)	0.322	0.0263	0.0701	-0.15
GNB4 C204 (UniProt Q9HAV0)	-0.178	0.0268	-0.0606	0.12
GLG1 C970 (UniProt Q92896)	-0.181	0.497	-0.207	0.536
GOLGA4 C1729 (UniProt Q13439)	-0.317	-0.119	0.244	-0.23
GON4L C2140 (UniProt Q3T8J9)	0.0416	-0.102	-0.208	-0.144
GNPAT C668 (UniProt O15228)	-0.0244	-0.0671	0.101	0.0456
GMPS C489 (UniProt P49915)	-0.109	-0.146	-0.139	-0.202
GPATCH8 C882 (UniProt Q9UKJ3)	-0.0686	-0.249	0.0431	-0.119
GDPD1 C107 (UniProt Q8N9F7)	0.328	-0.177	-0.323	-0.262
GRK5 C138 (UniProt P34947)	0.104	-0.0763	0.4	-0.191
GBF1 C613 (UniProt Q92538)	0.128	0.0677	0.107	0.0811
GSKIP C59 (UniProt Q9P0R6)	-0.508	-0.0301	-0.0407	0.098
GHDC C502 (UniProt Q8N2G8)	0.48	0.0734	0.549	0.273
GGACT C84 (UniProt Q9BVM4)	0.0981	0.0624	-0.0665	0.136
GOLGB1 C1964 (UniProt Q14789)	-0.255	0.147	-0.886	0.00173

Single records, as listed above. Order of values: log2 mean competition ratio ([1]; 50 µM)	log2 mean competition ratio ([1]; 200 µM)	log2 mean competition ratio ([2]; 50 µM)	log2 mean competition ratio ([2]; 200 µM)
GLG1 C970 (UniProt Q92896) is listed with -0.181	0.497	-0.207	0.536
GGACT C84 (UniProt Q9BVM4) is listed with 0.0981	0.0624	-0.0665	0.136
GNB4 C204 (UniProt Q9HAV0) is listed with -0.178	0.0268	-0.0606	0.12
GNL3 C234 (UniProt Q9BVP2) is listed with -0.134	0.016	0.926	0.308

Next part:

Target	log2 mean competition ratio ([1]; 50 µM)	log2 mean competition ratio ([1]; 200 µM)	log2 mean competition ratio ([2]; 50 µM)	log2 mean competition ratio ([2]; 200 µM)
GMPPB C245 (UniProt Q9Y5P6)	-0.147	0.317	0.0158	0.352
GRK6 C42 (UniProt P43250)	-0.488	0.331	0.245	0.205
GPC3 C349	0.524	-0.0858	0.194	-0.146
GCN1 C932 (UniProt Q92616)	-0.14	0.476	-0.215	0.229
GLG1 C269 (UniProt Q92896)	-0.272	0.255	-0.337	0.0983
GSE1 C1151 (UniProt Q14687)	-0.256	0.118	0.0365	0.245
GLB1 C426 (UniProt P16278)	-0.241	-0.266	-0.234	-0.361
GCC2 C399 (UniProt Q8IWJ2)	0.175	-0.201	-0.245	-0.318
GEN1 C634 (UniProt Q17RS7)	-0.388	0.185	-0.243	0.125
GMIP C895 (UniProt Q9P107)	0.0155	-0.236	-0.112	0.0651
GCN1 C2255 (UniProt Q92616)	0.392	-0.0331	0.103	-0.158
GCN1 C939 (UniProt Q92616)	0.4	-0.233	-0.222	-0.245
GPCPD1 C205 (UniProt Q9NPB8)	-0.282	-0.274	0.0156	0.1
GLG1 C1071 (UniProt Q92896)	0.0677	0.0429	0.0371	-0.0181
GMPPB C149 (UniProt Q9Y5P6)	0.0572	-0.247	0.234	-0.15
GIGYF1 C261 (UniProt O75420)	-0.0469	0.0481	-0.0448	0.17
GSK3A C380 (UniProt P49840)	0.00656	0.569	0.0668	0.224
GIGYF2 C573 (UniProt Q6Y7W6)	-0.0304	-0.0795	0.0723	-0.0166
GRHPR C288 (UniProt Q9UBQ7)	0.383	0.166	-0.000863	-0.0916
GNB2 C204 (UniProt P62879)	-0.0762	-0.141	-0.00234	-0.125
GID8 C139 (UniProt Q9NWU2)	0.04	-0.0911	0.249	0.283

— the supplement of paper PMC11732987, “Enantioselective OTUD7B fragment discovery through chemoproteomics screening and high-throughput optimisation” (Communications Chemistry, 2025)
